Values from PubChem BioAssay AID1224826 (NIAID, 2016).
The whole screen tested about 17,000 reagents; this is a part drawn at random. About 1,110 of them (6.6%) were called active. 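Active means lowered or raised reporter signal; replicate intensities are raw and not normalised per plate.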 A number with no mark means an inactive call.

- Assay: 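Knock-downs that raise or lower Tnf reporter signal after endotoxin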 (primary screen)
- Cell system: RAW264.7 G9 macrophages from mouse bearing reporters for p65 (GFP) and the Tnf promoter (mCherry)
- Knock-down reagent: siRNA pool against mouse genes, 100 nM
- Duration: 16 h of LPS stimulation, after 2 days of siRNA transfection
- Challenge: bacterial lipopolysaccharide (Salmonella minnesota R595), 10 ng/ml
- Measurement: 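Nuclear mCherry signal of the Tnf promoter reporter measured by imaging after background removal, scaled to each plate median and turned into robust z-scores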
- Direction: Tnf reporter robust z-score: higher = stronger Tnf promoter reporter signal after LPS; Tnf reporter intensity: higher = stronger Tnf promoter reporter signal
- Rule for the call: 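a well counts as active at a score of -1.3 or below (Tlr4 knock-down control median) or above 3 (raised signal); controls and wells holding fewer than 50 cells are excluded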
- Meaning of the calls: active = Tnf reporter clearly lowered or raised; inactive = no clear change in Tnf reporter

| gene | Tnf reporter robust z-score | fewer than 50 cells in well | Tnf reporter intensity, replicate 1 | Tnf reporter intensity, replicate 2 |
| --- | --- | --- | --- | --- |
| Ccdc166 (coiled-coil domain containing 166) | 1.03 | enough cells in well | 305 | 104 |
| Gstm3 (glutathione S-transferase, mu 3) | -1.65 (active) | enough cells in well | 117 | 67.6 |
| Rabl3 (RAB, member RAS oncogene family-like 3) | -0.01 | enough cells in well | 139 | 119 |
| Vmn1r78 (vomeronasal 1 receptor 78) | -1.44 (active) | enough cells in well | 63.3 | 23.2 |
| Bace1 (beta-site APP cleaving enzyme 1) | 0.46 | enough cells in well | 228 | 251 |
| Gipc3 (GIPC PDZ domain containing family, member 3) | 1 | enough cells in well | 139 | 203 |
| Lrtm2 (leucine-rich repeats and transmembrane domains 2) | 0.38 | enough cells in well | 268 | 178 |
| Dnah14 (dynein, axonemal, heavy chain 14) | -0.01 | enough cells in well | 178 | 145 |
| Zfp445 (zinc finger protein 445) | -1.02 | enough cells in well | 122 | 97.8 |
| Sp100 (nuclear antigen Sp100) | -0.38 | enough cells in well | 111 | 65.4 |
| Hcfc1r1 (host cell factor C1 regulator 1 (XPO1-dependent)) | -1.37 (active) | enough cells in well | 174 | 59.8 |
| Runx1t1 (RUNX1 translocation partner 1) | 0.5 | enough cells in well | 243 | 286 |
| H2ac18 (H2A clustered histone 18) | -0.32 | enough cells in well | 181 | 111 |
| Arl9 (ADP-ribosylation factor-like 9) | -0.55 | enough cells in well | 176 | 60.7 |
| Trim65 (tripartite motif-containing 65) | – | fewer than 50 cells per well; well left out of calls | 203 | 111 |
| Aldh7a1 (aldehyde dehydrogenase family 7, member A1) | -1.05 | enough cells in well | 112 | 109 |
| Cdc14a (CDC14 cell division cycle 14A) | -0.39 | enough cells in well | 210 | 185 |
| Foxi2 (forkhead box I2) | 1.57 | enough cells in well | 214 | 245 |
| Apoe (apolipoprotein E) | -1.3 (active) | enough cells in well | 116 | 70.5 |
| Krt20 (keratin 20) | -0.75 | enough cells in well | 121 | 114 |
| Nup153 (nucleoporin 153) | 0.27 | enough cells in well | 250 | 209 |
| Etnk1 (ethanolamine kinase 1) | 0.92 | enough cells in well | 262 | 202 |
| Krt33a (keratin 33A) | 0.1 | enough cells in well | 139 | 73.1 |
| Krt76 (keratin 76) | 0.94 | enough cells in well | 199 | 219 |
| Wdr19 (WD repeat domain 19) | 0.19 | enough cells in well | 144 | 216 |
| Mtmr12 (myotubularin related protein 12) | 0.3 | enough cells in well | 236 | 242 |
| Irag1 (inositol 1,4,5-triphosphate receptor associated 1) | -0.2 | enough cells in well | 240 | 196 |
| Pou3f2 (POU domain, class 3, transcription factor 2) | -0.72 | enough cells in well | 175 | 155 |
| Tmie (transmembrane inner ear) | 1.54 | enough cells in well | 200 | 123 |
| Tmem176a (transmembrane protein 176A) | 0.19 | enough cells in well | 214 | 76.4 |
| Cdca5 (cell division cycle associated 5) | – | fewer than 50 cells per well; well left out of calls | 168 | 176 |
| Sema4d | 0.11 | enough cells in well | 273 | 237 |
| Spg21 (SPG21, maspardin) | – | fewer than 50 cells per well; well left out of calls | 131 | 112 |
| Gramd2b (GRAM domain containing 2B) | 0.56 | enough cells in well | 225 | 213 |
| Glp2r (glucagon-like peptide 2 receptor) | -1.15 | enough cells in well | 104 | 230 |
| Sack1h (scaffolding CK1 anchoring protein H) | -0.77 | enough cells in well | 95.5 | 119 |
| Ccnt1 (cyclin T1) | -0.8 | enough cells in well | 189 | 144 |
| Ppp1r1b (protein phosphatase 1, regulatory inhibitor subunit 1B) | -0.15 | enough cells in well | 195 | 145 |
| Krt18 (keratin 18) | -0.07 | enough cells in well | 232 | 148 |
| Ift52 (intraflagellar transport 52) | -0.5 | enough cells in well | 97.4 | 135 |
| Abca3 (ATP-binding cassette, sub-family A member 3) | 1.44 | enough cells in well | 343 | 243 |
| Arhgap17 (Rho GTPase activating protein 17) | 2.04 | enough cells in well | 292 | 274 |
| Kdm4d (lysine (K)-specific demethylase 4D) | – | fewer than 50 cells per well; well left out of calls | 146 | 50.3 |
| Stap2 (signal transducing adaptor family member 2) | -0.78 | enough cells in well | 165 | 114 |
| Igfbp4 (insulin-like growth factor binding protein 4) | 0.85 | enough cells in well | 291 | 255 |
| Plekhg6 (pleckstrin homology and RhoGEF domain containing G6) | -0.97 | enough cells in well | 101 | 104 |
| Tor1b (torsin family 1, member B) | 0 | enough cells in well | 105 | 104 |
| Meltf (melanotransferrin) | 0.41 | enough cells in well | 184 | 193 |
| G6pd2 (glucose-6-phosphate dehydrogenase 2) | -2.06 (active) | enough cells in well | 86.6 | 34.1 |
| Rflna (refilin A) | 1.6 | enough cells in well | 343 | 71.4 |
| Iqcb1 (IQ calmodulin-binding motif containing 1) | 0.01 | enough cells in well | 196 | 173 |
| A430090L17Rik (RIKEN cDNA A430090L17 gene) | -0.02 | enough cells in well | 129 | 196 |
| Pcsk9 (proprotein convertase subtilisin/kexin type 9) | – | fewer than 50 cells per well; well left out of calls | 123 | 85.2 |
| Rbpj | 1.17 | enough cells in well | 515 | 229 |
| Xiap (X-linked inhibitor of apoptosis) | -0.19 | enough cells in well | 109 | 188 |
| Zfyve19 (zinc finger, FYVE domain containing 19) | -0.91 | enough cells in well | 91.6 | 86.6 |
| Gria4 (glutamate receptor, ionotropic, AMPA4 (alpha 4)) | -0.69 | enough cells in well | 209 | 170 |
| 1700065D16Rik (RIKEN cDNA 1700065D16 gene) | 1.11 | enough cells in well | 324 | 102 |
| Usp10 (ubiquitin specific peptidase 10) | -0.87 | enough cells in well | 167 | 156 |
| Rxra (retinoid X receptor alpha) | -0.45 | enough cells in well | 281 | 161 |
| Clec2g (C-type lectin domain family 2, member g) | 0.08 | enough cells in well | 269 | 171 |
| Gorab (golgin, RAB6-interacting) | 1.48 | enough cells in well | 319 | 271 |
| V1rd18 (vomeronasal 1 receptor, D18) | – | fewer than 50 cells per well; well left out of calls | 172 | 186 |
| Pigb (phosphatidylinositol glycan anchor biosynthesis, class B) | -0.86 | enough cells in well | 93.1 | 106 |
| Hpdl (4-hydroxyphenylpyruvate dioxygenase-like) | 0.04 | enough cells in well | 194 | 228 |
| Or13c3 (olfactory receptor family 13 subfamily C member 3) | 0.85 | enough cells in well | 223 | 162 |
| Stk-ps2 (serine/threonine kinase 2) | -1.04 | enough cells in well | 121 | 42.4 |
| Eef1d (eukaryotic translation elongation factor 1 delta) | 1.52 | enough cells in well | 336 | 139 |
| Dmac1 (distal membrane arm assembly complex 1) | – | fewer than 50 cells per well; well left out of calls | 184 | 75.6 |
| H2-Ea (histocompatibility 2, class II antigen E alpha) | 0.34 | enough cells in well | 266 | 210 |
| Nudcd1 (NudC domain containing 1) | 1.51 | enough cells in well | 264 | 118 |
| 9130019P16Rik (RIKEN cDNA 9130019P16 gene) | -0.67 | enough cells in well | 164 | 99.6 |
| Ifi27 (interferon, alpha-inducible protein 27) | -0.49 | enough cells in well | 143 | 159 |
| Obscn | -0.44 | enough cells in well | 200 | 105 |
| Lrg1 (leucine-rich alpha-2-glycoprotein 1) | -0.64 | enough cells in well | 174 | 93.1 |
